According to doi:10.1101/2022.06.03.494746:

Tests used:
[1] = biological target: DCP1-TurboID-6xHis-3xFLAG (Arabidopsis); assay: proximity labelling
[2] = biological target: DCP1-TurboID-6xHis-3xFLAG (Arabidopsis); assay: affinity purification with mass spectrometry

Binder | binding [1] | binding [2]
DRP2A (protein, UniProt Q9SE83 1-914) MEAIDELSQLSDSMKQAASLLADEDPDETSSSKRPATFLNVVALGNVGAGKSAVLNSLIGHPVLPTGENGATRAPIIIELSRESSLSSKAIILQIDNKSQQVSASALRHSLQDRLSKGASGKNRDEINLKLRTSTAPPLKLVDLPGLDQRIVDESMIAEYAQHNDAILLVIVPASQASEISSSRALKIAKEYDPESTRTIGIIGKIDQAAENSKALAAVQALLSNQGPPKTTDIPWVAVIGQSVSIASAQSGSGENSLETAWRAESESLKSILTGAPQSKLGRIALVDTLASQIRSRMKLRLPSVLSGLQGKSQIVQDELARLGEQLVNSAEGTRAIALELCREFEDKFLLHLAGGEGSGWKVVASFEGNFPNRIKQLPLDRHFDLNNVKRVVLEADGYQPYLISPEKGLRSLIKIVLELAKDPARLCVDEVHRVLVDIVSASANATPGLGRYPPFKREVVAIASAALDGFKNEAKKMVVALVDMERAFVPPQHFIRLVQRRMERQRREEELKGRSSKKGQDAEQSLLSRATSPQPDGPTAGGSLKSMKDKPSPQDKETPEVSGLKTAGPEGEITAGYLMKKSAKTNGWSRRWFVLNEKTGKLGYTKKQEERNFRGTITLEECTIEEIPEDEVEKSKSSKDKKANGPDSKGPGLVFKITCKVPYKTVLKAHNALVLKAESVVDKNEWINKLQKVIQARGGQVGSVSMRQSLSEGSLDKMVRKPIDPEEELRWMSQEVRGYVEAVLNSLAANVPKAVVLCQVEKAKEDMLNQLYSSISAIGNERIESLIQEDQNVKRRRERYQKQSSLLSKLTRQLSIHDNRAAAASSYSDNSGTESSPRASGGSSGDDWMNAFNSAANGPSDSLSKYGSGGHSRRYSDPAQNGDAASPGSGSNRRTTPNRLPPAPPPTGSAYRY | binds | binds
DRP2B (protein, UniProt Q9LQ55 1-920) MEAIDELSQLSDSMRQAASLLADEDPDETSSSRRPATSLNVVALGNVGAGKSAVLNSLIGHPVLPTGENGATRAPIIIDLSREESLSSKAIILQIDNKNQQVSASALRHSLQDRLSKGASGRGRDEIYLKLRTSTAPPLKLIDLPGLDQRIVDDSMIGEHAQHNDAILLVVVPASQASEISSSRALKIAKEYDPESTRTVGIISKIDQAAENPKSLAAVQALLSNQGPPKTTDIPWVALIGQSVSIASAQSGGSENSLETAWRAESESLKSILTGAPQSKLGRIALVDTLASQIRSRMKLRLPNILTGLQGKSQIVQDELARLGEQLVSSAEGTRAIALELCREFEDKFLLHLAGGEGSGWKVVASFEGNFPNRIKKLPLDRHFDLNNVKRIVLEADGYQPYLISPEKGLRSLIKTVLELAKDPARLCVDEVHRVLVDIVSASANATPGLGRYPPFKREVVAIASAALDGFKNEAKKMVVALVDMERAFVPPQHFIRLVQRRMERQRREEELKGRSSKKGQDAEQSLLNRATSPQPDGPSSTGGSLKSLRDKLMPQDKDKDKEKETPEVSGLKTAGPEGEITAGYLMKKSAKTNGWSRRWFVLNEKTGKLGYTKKQEERNFRGTVTLEECSIEEISDDEGEKSKSSKDKKSNGPDSKGPGLVFKITCRVPYKTVLKAHNALVLKAESMVDKNEWINKLQKVIQARGGQVGSASMRQSLSEGSLDKMVRKPVDPEEELRWMSQEVRGYVEAVLNSLAANVPKAVVLCQVEKSKEDMLNQLYSSISAIGNERIESLIQEDQNVKRRRDRYQKQSSLLSKLTRQLSIHDNRAAAASSWSDNSGTESSPRTNGGSSGEDWMNAFNAAASGPDSLKRYGSGGHSRRYSDPAQNGEDSSGSGGSSRRTTPNRLPPAPPQSGSSYRY | binds | binds
ARC5 (protein, UniProt Q84N64 1-777) MAEVSAKSVTVEEMAEEDDAAIEERWSLYEAYNELHALAQELETPFEAPAVLVVGQQTDGKSALVEALMGFQFNHVGGGTKTRRPITLHMKYDPQCQFPLCHLGSDDDPSVSLPKSLSQIQAYIEAENMRLEQEPCSPFSAKEIIVKVQYKYCPNLTIIDTPGLIAPAPGLKNRALQVQARAVEALVRAKMQHKEFIILCLEDSSDWSIATTRRIVMQVDPELSRTIVVSTKLDTKIPQFSCSSDVEVFLSPPASALDSSLLGDSPFFTSVPSGRVGYGQDSVYKSNDEFKQAVSLREMEDIASLEKKLGRLLTKQEKSRIGISKLRLFLEELLWKRYKESVPLIIPLLGKEYRSTVRKLDTVSKELSSLDEAKLKERGRTFHDLFLTKLSLLLKGTVVAPPDKFGETLQDERTQGGAFVGTDGLQFSHKLIPNAGMRLYGGAQYHRAMAEFRFLVGAIKCPPITREEIVNACGVEDIHDGTNYSRTACVIAVAKARETFEPFLHQLGARLLHILKRLLPISVYLLQKEGEYLSGHEVFLKRVASAFNSFVESTEKSCRDKCMEDLASTTRYVTWSLHNKNRAGLRQFLDSFGGTEHNTTSGNAIGFSLPQDALGGTTDTKSRSDVKLSHLASNIDSGSSIQTTEMRLADLLDSTLWNRKLAPSSERIVYALVQQIFQGIREYFLASAELKFNCFLLMPIVDKLPALLREELENAFEDDLDSIFDITNLRQSLDQKKRSTEIELRRIKRIKEKFRVMNEKLNSHEFAQNLKAPSVQH | binds | binds
RSW9 (protein, UniProt P42697 1-610) MENLISLVNKIQRACTALGDHGDSSALPTLWDSLPAIAVVGGQSSGKSSVLESIVGKDFLPRGSGIVTRRPLVLQLQKIDDGTREYAEFLHLPRKKFTDFAAVRKEIQDETDRETGRSKAISSVPIHLSIYSPNVVNLTLIDLPGLTKVAVDGQSDSIVKDIENMVRSYIEKPNCIILAISPANQDLATSDAIKISREVDPSGDRTFGVLTKIDLMDKGTDAVEILEGRSFKLKYPWVGVVNRSQADINKNVDMIAARKREREYFSNTTEYRHLANKMGSEHLAKMLSKHLERVIKSRIPGIQSLINKTVLELETELSRLGKPIAADAGGKLYSIMEICRLFDQIFKEHLDGVRAGGEKVYNVFDNQLPAALKRLQFDKQLAMDNIRKLVTEADGYQPHLIAPEQGYRRLIESSIVSIRGPAEASVDTVHAILKDLVHKSVNETVELKQYPALRVEVTNAAIESLDKMREGSKKATLQLVDMECSYLTVDFFRKLPQDVEKGGNPTHSIFDRYNDSYLRRIGSNVLSYVNMVCAGLRNSIPKSIVYCQVREAKRSLLDHFFAELGTMDMKRLSSLLNEDPAIMERRSAISKRLELYRAAQSEIDAVAWSK | binds | binds
SOSEKI3 (protein, UniProt Q8GYT8 1-540) MEARMKKYSREVSPERAKVWTEKSPKYHQKIKKVQIVYYLSKNRQLEHPHFMEVLISSPNGLYLRDVIERLNVLRGRGMASMYSWSSKRSYRNGFVWHDLSEDDLILPANGNEYVLKGSELFDESNSDHFSPIVNLATQNMKQIVVEPPSSRSMDDSSSSSSMNNGKGTNKHSHEDDELSPPALRSVSSSGVSPDSRDAKNSSSWCLAEYKVYKSEGLADASTQTDETVSGRSKTPIETFSRGVSTDEDVSSEPETSENNLVSEASCAGKERESAEISRNSVSPPFSNSASSLGGKTDTLESLIRADVSKMNSFRILEQEDVRMPAIPRLRASNMLMQLISCGSISVKDNNFGLVPTYKPKFGHSKFPSPFFSSSFMMGDLDRLSETPSLMGLRMEEKEYFSGSLVETKLQKKDAADSNASLKRSSSYNGDRASNQMGVAENGDSKPDSSKNNPSSRKASSILGKQQPLVSEKRRDSSEDTTKNIPCTTKTHDACSKRITESLRKPDSFREDEERVIKIDERLASGARVRIESKVPSEEP | binds | –
GRL/NAP125 (protein, UniProt Q5S2C4 1-1425) MANSRQYYPSQDESMSPTSVRSREWEGPSRWTEYLGPEMAASVSSTRSSKQIDGHVGGSTKALNIQWVVQMIEVADGLMAKMYRLNQILEYPDPVGHVFSEAFWKAGVFPNHPRICTLLSKKFPEHFSKLQLERIDKFSLDSLHDGAELHLQSLEPWIQLLLDLMAFREQALRLILDLSSTVITLLPHQNSLILHAFMDLFCAFVRVNLFAEKIPRKMLLQVYNLLHALSRNDRDCDFYHRLVQFIDSYDPPLKGLQEDLNFVSPRIGEVLEAVGPSIFLSADTRKLRNEGFLSPYHPRFPDILTNSAHPMRAQDLANVTSYREWVLLGYLVCPDELLRVTSIDIALVVLKENLVVTLFRDEVSLYQMVCEKEFGIGISFASADSINLTMQYILLHEDYQLYVLPRVLESKKMAKSGRTKQKEADLEYSVAKQVEKMISEVHEQALQLCDTIHRERRILLKQEIGRMVLFFTDQPSLLAPNIQMVFSALALAQSEVLWYFQHAGIASSRSKAARVIPVDIDPNDPTIGFLLDGMDRLCCLVRKYISAARGYALSYLSSSAGRIRYLMGTPGIVALDLDPTLKGLFQRIVQHLESIPKAQGENVSAITCDLSDFRKDWLSILMIVTSSRSSINIRHLEKATVSTGKEGLLSEGNAAYNWSRCVDELESQLSKHGSLKKLYFYHQHLTTVFRNTMFGPEGRPQHCCAWLSVASSFPECASLIIPEEVTKFGRDAVLYVESLIESIMGGLEGLINILDSEGGFGALESQLLPEQAAAYLNNASRISAPSVKSPRVVGGFTLPGHESYPENNKSIKMLEAAIQRLTNLCSILNDMEPICVINHVFVLREYMRECILGNFKRRFLTALQTDNDLQRPSVLESLIRRHMGIVHLAEQHVSMDLTQGIREILLTEAFSGPVSSLHTFEKPAEQQQTTGSAVEVVCNWYMDNIIKDVSGAGILFAPRHKYFKSTRPVGGYFAESVTDLKELQAFVRIFGGYGVDRLDRMMKVHTAALVNCIETSLRSNRELIEAAAASMHSGDRVERDASVRQIVDLDTVIGFCIEAGQALAFDDLLAEASGAVLEDNASLIHSMISGIVEHIPEEIPEKKEIRRIKGVANGVGVAGDHDSEWVRLILEEVGGANDNSWSLLPYFFASFMTSNAWNTTGFNIETGGFSNNIHCLARCISAVIAGSEYVRLQREYQQQHQSLSNGHHSSENLDSEFPPRVTAEASIKSSMLLFVKFAASIVLDSWSEANRSHLVAKLIFLDQLCEISPYLPRSSLESHVPYTILRSIYTQYYSNTPSTPLSTASPYHSPSVSLIHASPSMKNSTTPQRGSGSGSSSTAAPDSGYFKGSSSSLYGQEHYTESETGNSRNNENNNNNKQRGSSRRSGPLDYSSSHKGGSGSNSTGPSPLPRFAVSRSGPISYKQHN | binds | –
RNA-BINDING PROTEIN 47B (protein, UniProt Q0WW84 1-435) MQTTNGSDSTLATSGATPPNQQTPPPPQQWQQQQQQQQQWMAAMQYPPAAAMMMMQQQQMLMYPHQYVPYNQGPYQQHHPQLHQYGSYQQHQHQQHKAIDRGSGDDVKTLWVGDLLHWMDETYLHSCFSHTGEVSSVKVIRNKLTSQSEGYGFVEFLSRAAAEEVLQNYSGSVMPNSDQPFRINWASFSTGEKRAVENGPDLSVFVGDLSPDVTDVLLHETFSDRYPSVKSAKVVIDSNTGRSKGYGFVRFGDENERSRALTEMNGAYCSNRQMRVGIATPKRAIANQQQHSSQAVILAGGHGSNGSMGYGSQSDGESTNATIFVGGIDPDVIDEDLRQPFSQFGEVVSVKIPVGKGCGFVQFADRKSAEDAIESLNGTVIGKNTVRLSWGRSPNKQWRGDSGQQWNGGYSRGHGYNNGGGYANHHDSNNYHGEN | no binding | no binding

No constants are given. Whether binding was seen depends on the method and setting. In cells and extracts the contact can be indirect. A yes stands for co-enrichment or nearness to the bait. Other partners may have been found. A no says only that the protein was not detected with the bait.
